Measured values published in patent publication US5677279A, “Methods and compositions for treating pain with amylin or agonists thereof” (Amylin Pharmaceuticals, Inc., priority 1996, dated 1997).

System: acetic acid-induced writhing in mice
Experiment: mouse writhing assay (acetic acid-induced writhing)
Assay type: in vivo

CN1CC[C@]23c4c5ccc(O)c4O[C@H]2[C@@H](O)C=C[C@H]3[C@H]1C5 [morphine]
analgesic effect at 0.1 mg/kg (morphine 0.1 mg/kg): non-analgesic
analgesic effect at 0.3 mg/kg (morphine 0.3 mg/kg, 30 minutes prior): effective
analgesic effect at 1.0 mg/kg (morphine 1.0 mg/kg, 30 minutes prior (P<0.01)): effective
analgesic effect at 3.0 mg/kg (morphine 3.0 mg/kg, 30 minutes prior (P<0.001)): effective
lowest effective analgesic dose (morphine intraperitoneal 30 minutes prior to acetic acid (P<0.05)): 0.3 mg/kg
